Measurements reported in PubChem BioAssay AID1259308 (NCATS, 2017).
Here is a random part of about 59,000 reagents tested. Of all reagents, about 1,510 (2.6%) got an active call. 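Calls use total luciferase alone and ignore viability, so some active siRNAs may act by altering cell number.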 A number with no mark means an inactive call. The numbers tell different reagents against one gene apart.

Test: 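Knock-downs that increase output of a recombinant reporter protein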 (primary screen)
System: human HEK293 embryonic kidney cells stably expressing firefly luciferase (HEK-CMV-Luc2-Hygro)
Knock-down reagent: single siRNA against human genes, 0.8 pmol siRNA per well
Time to read-out: 72 h
Measured: 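Luciferase light (ONE-Glo) measured on one replicate plate set and viability (CellTiter-Glo) on the other, scaled to a negative control siRNA, with robust z-scores and luciferase per cell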
Reading the numbers: total luciferase, z-score and total luciferase, % of control: higher = more reporter protein produced; luciferase per cell, z-score: higher = more reporter output per viable cell; viable cells, % of control: higher = more viable cells
Active means: 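An siRNA counts as active if its total luciferase robust z-score exceeds 3; genes with two or more such siRNAs out of three were retested with fresh siRNAs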
Calls: active = raised luciferase; inactive = no rise

Target gene | reagent | total luciferase, z-score | total luciferase, % of control | luciferase per cell, z-score | viable cells, % of control
DNAH7 (GeneID 56171) | 1 | -0.577 | 70.4 | -0.554 | 91
DNAH7 (GeneID 56171) | 2 | 0.415 | 90.1 | -0.108 | 104
DNAH7 (GeneID 56171) | 3 | -0.494 | 72.1 | -0.237 | 85.7
RNF141 (GeneID 50862) | 1 | 0.182 | 85.5 | -0.441 | 107
RNF141 (GeneID 50862) | 2 | 1.22 | 106 | 0.734 | 97.8
RNF141 (GeneID 50862) | 3 | -0.636 | 69.2 | -0.987 | 100
MYO5A (GeneID 4644) | 1 | 0.769 | 97.2 | 1.02 | 83.1
MYO5A (GeneID 4644) | 2 | 1.46 | 111 | 2.25 | 68.5
MYO5A (GeneID 4644) | 3 | -0.411 | 73.7 | -0.298 | 89.1
AMER3 (GeneID 205147) | 1 | 1.73 | 116 | 1.41 | 89.6
AMER3 (GeneID 205147) | 2 | -0.0719 | 80.5 | 0.255 | 84.1
AMER3 (GeneID 205147) | 3 | -0.986 | 62.3 | 0.483 | 61.3
BBLN (GeneID 79095) | 1 | 0.118 | 84.2 | -0.297 | 102
BBLN (GeneID 79095) | 2 | -0.306 | 75.8 | -0.0333 | 85.4
BBLN (GeneID 79095) | 3 | -1.36 | 54.8 | -1.62 | 93.8
TFAM (GeneID 7019) | 1 | -0.428 | 73.4 | -0.804 | 101
TFAM (GeneID 7019) | 2 | 1.14 | 105 | 1.06 | 88.4
TFAM (GeneID 7019) | 3 | 0.5 | 91.8 | 0.297 | 94.9
RIOK1 (GeneID 83732) | 1 | 0.312 | 88.1 | -0.194 | 104
RIOK1 (GeneID 83732) | 2 | 0.0397 | 82.7 | 0.251 | 86.5
RIOK1 (GeneID 83732) | 3 | -0.149 | 78.9 | -0.592 | 103
TAF13 (GeneID 6884) | 1 | 0.202 | 85.9 | 1.58 | 63.4
TAF13 (GeneID 6884) | 2 | -0.363 | 74.7 | -0.529 | 95.9
TAF13 (GeneID 6884) | 3 | 0.419 | 90.2 | 0.0546 | 99.4

Copied from above for reference:
Target gene | reagent | total luciferase, z-score | total luciferase, % of control | luciferase per cell, z-score | viable cells, % of control
TFAM (GeneID 7019) | 3 | 0.5 | 91.8 | 0.297 | 94.9
RIOK1 (GeneID 83732) | 1 | 0.312 | 88.1 | -0.194 | 104
RIOK1 (GeneID 83732) | 2 | 0.0397 | 82.7 | 0.251 | 86.5
RIOK1 (GeneID 83732) | 3 | -0.149 | 78.9 | -0.592 | 103
TAF13 (GeneID 6884) | 1 | 0.202 | 85.9 | 1.58 | 63.4
TAF13 (GeneID 6884) | 2 | -0.363 | 74.7 | -0.529 | 95.9
TAF13 (GeneID 6884) | 3 | 0.419 | 90.2 | 0.0546 | 99.4

Continued:
Target gene | reagent | total luciferase, z-score | total luciferase, % of control | luciferase per cell, z-score | viable cells, % of control
CBX3P2 (GeneID 645158) | 1 | 0.544 | 92.7 | 0.254 | 96.9
CBX3P2 (GeneID 645158) | 2 | 2.92 | 140 | 1.6 | 103
CBX3P2 (GeneID 645158) | 3 | 2.12 | 124 | 2.37 | 74.2
CCDC178 (GeneID 374864) | 1 | -0.0149 | 81.6 | 0.551 | 78.9
CCDC178 (GeneID 374864) | 2 | -0.523 | 71.5 | -0.633 | 94.4
CCDC178 (GeneID 374864) | 3 | -0.576 | 70.4 | 0.149 | 75.7
ARL13A (GeneID 392509) | 1 | 1.21 | 106 | 1.7 | 75.6
ARL13A (GeneID 392509) | 2 | 0.368 | 89.2 | 0.701 | 82.9
ARL13A (GeneID 392509) | 3 | 1.28 | 107 | 0.825 | 96.4
ADAMTS5 (GeneID 11096) | 1 | -0.84 | 65.2 | -0.44 | 81.8
ADAMTS5 (GeneID 11096) | 2 | 0.78 | 97.4 | 1.06 | 82.3
ADAMTS5 (GeneID 11096) | 3 | 0.678 | 95.4 | 0.277 | 99.1
CALR (GeneID 811) | 1 | 0.0465 | 82.8 | 0.0416 | 91.5
CALR (GeneID 811) | 2 | 1.27 | 107 | 1.49 | 81
CALR (GeneID 811) | 3 | 0.929 | 100 | 1.11 | 83.6
MOBP (GeneID 4336) | 1 | 2.46 | 131 | 1.65 | 94.5
MOBP (GeneID 4336) | 2 | 0.095 | 83.8 | 0.0554 | 92.3
MOBP (GeneID 4336) | 3 | 1.18 | 105 | 0.675 | 98.6
BAK1 (GeneID 578) | 1 | -0.471 | 72.5 | -0.455 | 91.4
BAK1 (GeneID 578) | 2 | 0.64 | 94.6 | 0.00445 | 106
BAK1 (GeneID 578) | 3 | -0.739 | 67.2 | -0.57 | 87.3
H2AB2 (GeneID 474381) | 1 | 1.56 | 113 | 1.84 | 77.7
H2AB2 (GeneID 474381) | 2 | 0.0183 | 82.3 | -0.209 | 97.1
H2AB2 (GeneID 474381) | 3 | -0.118 | 79.5 | -0.267 | 95.4
POU2F3 (GeneID 25833) | 1 | -0.59 | 70.2 | -1.2 | 108
POU2F3 (GeneID 25833) | 2 | -0.113 | 79.6 | -0.166 | 93
POU2F3 (GeneID 25833) | 3 | -1.55 | 51 | -1.35 | 81.4
ELOVL6 (GeneID 79071) | 1 | 0.51 | 92 | 0.344 | 93.9
ELOVL6 (GeneID 79071) | 2 | -1.72 | 47.7 | -1.96 | 89.3
ELOVL6 (GeneID 79071) | 3 | 0.654 | 94.9 | 0.919 | 83.2
PCDH10 (GeneID 57575) | 1 | -1.38 | 54.4 | -1.17 | 82.7
PCDH10 (GeneID 57575) | 2 | 3.61 (active) | 154 | 2.86 | 80.9
PCDH10 (GeneID 57575) | 3 | -1.04 | 61.3 | -1.3 | 96.5
